# PubChem BioAssay AID1487 (National Center for Advancing Translational Sciences (NCATS), 2009)
# Values joined by “and” are separate entries in the source; they are usually repeats but may differ in a detail not shown here. Equal entries are not always repeated. The list shows a part of the results. Further columns of the screen follow, without active or inactive calls. The list favours compounds with an active or inconclusive main result. The note in brackets gives the kind of curve behind each potency; many fits are weak.
# Assay: qHTS Assay for Modulators of Lamin A Splicing
# Conditions: HeLa LMNA splicing GFP/RFP minigene ratio, 48 h
# How it was run: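 Read-out is the ratio of GFP to DsRed2 object intensity, acquired by 488 nm laser-scanning cytometry on HeLa lamin A-EGFP minigene reporter cells. Compound incubation 48 hrs at 37 °C in Opti-MEM with 2% FBS; DMSO 0.5% final.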
# [1] = measured here: RFP viability control channel
# [2] = measured here: GFP splicing reporter channel
smiles,measurement,setting,value
CCOc1ccccc1Nc1sc(C(=O)c2ccc(Cl)cc2)c(N)c1C#N,AC50,[1],"35.5 µM [falling, single point]"
CN(CCCN1CCOCC1)Cc1cn(C)nc1-c1ccccc1F,AC50,[1],"0.0158 µM [falling, full curve, poor fit]"
CN(C)S(=O)(=O)c1cc(NC(=O)CN2C(=O)NC3(CCCc4ccccc43)C2=O)ccc1Cl (centres undefined),AC50,[2],"11.2 µM [rising, single point]"
same,AC50,[1],"14.1 µM [rising, partial curve]"
CC1=NCCN1S(=O)(=O)c1ccc(Br)c(C)c1,AC50,[2],"35.5 µM [falling, single point]"
CCOC(=O)c1ccc2nc3c(cc2c1)CCS3,AC50,[2],"35.5 µM [rising, single point]"
same,AC50,[1],"2 µM [rising, partial curve]"
COc1ccc([C@@H]2Sc3ccccc3N(CCN(C)C)C(=O)[C@@H]2OC(C)=O)cc1,AC50,[2],"12.6 µM [falling, partial curve, poor fit] and 20 µM [falling, partial curve, poor fit] and 794 nM [falling, partial curve]"
same,AC50,[1],"25.1 µM [rising, single point] and 1.12 µM [falling, full curve]"
COC(=O)[C@@H](N)CS,AC50,[2],"0.0141 µM [falling, full curve, poor fit]"
CC(C)c1onc(C(=O)Nc2cccnc2Cl)c1[N+](=O)[O-],AC50,[2],"11.2 µM [rising, partial curve, poor fit]"
same,AC50,[1],"11.2 µM [rising, partial curve, poor fit]"
CN1CCN(C(=S)Nc2cc(S(=O)(=O)N3CCOCC3)ccc2Cl)CC1,AC50,[2],"0.02 µM [falling, full curve, poor fit]"
O=C(NCc1ccco1)C1CCCN1C(=O)Nc1ccccc1Cl (centres undefined),AC50,[2],"0.02 µM [rising, full curve]"
Cc1ccccc1S(=O)(=O)NNC(=O)C(=O)NNc1ccccn1,AC50,[1],"10 µM [rising, partial curve, poor fit]"
Cn1c(=O)n(C)c2cc([N+](=O)[O-])c(N3CCN(C(=O)c4ccc(F)cc4)CC3)cc21,AC50,[2],"3.55 µM [falling, full curve, poor fit]"
same,AC50,[1],"6.31 µM [falling, full curve]"
O=C(C1CCN(c2ncnc3c2nc2n3CCCCC2)CC1)N1CCN(c2ccccc2)CC1,AC50,[2],"35.5 µM [falling, single point]"
N#CCCN(Cc1cccnc1)C(=S)NC(=O)c1ccco1,AC50,[1],"2.51 µM [rising, partial curve, poor fit]"

# 2 entries from above, bar-delimited.
smiles | measurement | setting | value
CN1CCN(C(=S)Nc2cc(S(=O)(=O)N3CCOCC3)ccc2Cl)CC1 | AC50 | [2] | 0.02 µM [falling, full curve, poor fit]
O=C(NCc1ccco1)C1CCCN1C(=O)Nc1ccccc1Cl (centres undefined) | AC50 | [2] | 0.02 µM [rising, full curve]
